Literature values, collected in US20050032863A1, “Method of treating or preventing central nervous system disorders with compounds having selectivity for the alpha 3 subunit of the benzodiazepine receptor” (priority 2003, published 2005).
Like-named read-outs stand apart in the source and are kept apart here.

Test system: 5-HT release in the brain
Details: literature reports, cited from earlier work

## CN1C(=O)CN=C(c2ccccc2)c2cc(Cl)ccc21 [Diazepam, reference compound]
  effect on 5-HT release / extracellular 5-HT in the brain: no effect
Listed as diazepam
  effect on 5-HT release / extracellular 5-HT in the brain: do not increase but rather decrease
